For the data set the following is noted: male Sprague Dawley rat plasma, endogenous, n=6.

Take `NCC(=O)O` [Glycine]: the “plasma glycine levels, average (mean±SD)” value was 240.9 ± 45.2 µM and the “plasma glycine levels, range” value was in the range of 184 to 307 µM.

Source of the values: patent US11407812B2, “Targeted expression of chloride channels and methods of use thereof” (GOLEINI INC., priority 2015, dated 2022).
